Measurements from patent publication US20080199897A1, “CLASS II HISTONE DEACETYLASE WHOLE CELL ENZYME ASSAY” (MethylGene Inc., priority 2007, published 2008).

System: A549
Assay: whole cell deacetylase assay with Boc-Lys(Ac)-AMC in A549 cells
Details: read-out: whole cell deacetylase IC50, A549, pre-incubated with inhibitor 16 hours, Boc-Lys(Ac)-AMC substrate, mean of at least 2 experiments

IC50: 500 nM
SMILES: O=C(CCCCCCC(=O)Nc1ccccc1)NO [SAHA]
